No constants are given. Whether binding was seen depends on the method and setting. In cells and extracts the contact can be indirect. Some results given as binding are weak or reduced against the parent protein; the word gives no strength. Sequences can lack the tags named with a protein.
Molecular target: T1, FLAG-tagged USP13 (Ubiquitin-specific Peptidase 13), wild type (human) (UniProt Q92995)
T1 sequence: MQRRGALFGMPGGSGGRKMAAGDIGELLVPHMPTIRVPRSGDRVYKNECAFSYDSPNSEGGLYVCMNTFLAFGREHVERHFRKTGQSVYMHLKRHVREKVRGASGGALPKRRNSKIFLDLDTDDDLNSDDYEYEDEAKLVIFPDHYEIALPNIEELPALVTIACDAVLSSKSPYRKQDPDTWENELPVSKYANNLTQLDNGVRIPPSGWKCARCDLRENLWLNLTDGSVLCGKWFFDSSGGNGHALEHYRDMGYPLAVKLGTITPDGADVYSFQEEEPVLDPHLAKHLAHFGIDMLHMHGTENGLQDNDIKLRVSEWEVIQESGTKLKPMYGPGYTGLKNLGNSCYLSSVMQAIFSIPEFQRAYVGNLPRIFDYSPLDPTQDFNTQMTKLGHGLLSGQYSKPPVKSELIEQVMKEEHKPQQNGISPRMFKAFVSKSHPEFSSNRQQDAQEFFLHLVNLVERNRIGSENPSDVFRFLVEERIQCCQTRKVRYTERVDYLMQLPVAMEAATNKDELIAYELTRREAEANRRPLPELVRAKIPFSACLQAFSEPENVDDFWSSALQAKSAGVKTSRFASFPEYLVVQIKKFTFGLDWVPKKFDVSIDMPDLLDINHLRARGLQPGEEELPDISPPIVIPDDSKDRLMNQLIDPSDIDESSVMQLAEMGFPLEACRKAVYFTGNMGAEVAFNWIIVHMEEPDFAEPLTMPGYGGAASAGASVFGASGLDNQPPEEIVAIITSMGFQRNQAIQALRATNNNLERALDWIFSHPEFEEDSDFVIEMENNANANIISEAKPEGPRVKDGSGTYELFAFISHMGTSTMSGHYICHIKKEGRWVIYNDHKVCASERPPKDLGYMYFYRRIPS
Assay: co-IP; HeyA8 cells transfected with FLAG-USP13; lysate (1 mg) in IP buffer (1% NP-40, 50 mM Tris-HCl, 500 mM NaCl, 5 mM EDTA) incubated overnight at 4 °C with anti-FLAG M2 antibody or normal IgG, Protein A-Sepharose beads; western blot with anti-CK2α antibody

Chains of the proteins cited; added tags and fusions are not shown.
UniProt P68400: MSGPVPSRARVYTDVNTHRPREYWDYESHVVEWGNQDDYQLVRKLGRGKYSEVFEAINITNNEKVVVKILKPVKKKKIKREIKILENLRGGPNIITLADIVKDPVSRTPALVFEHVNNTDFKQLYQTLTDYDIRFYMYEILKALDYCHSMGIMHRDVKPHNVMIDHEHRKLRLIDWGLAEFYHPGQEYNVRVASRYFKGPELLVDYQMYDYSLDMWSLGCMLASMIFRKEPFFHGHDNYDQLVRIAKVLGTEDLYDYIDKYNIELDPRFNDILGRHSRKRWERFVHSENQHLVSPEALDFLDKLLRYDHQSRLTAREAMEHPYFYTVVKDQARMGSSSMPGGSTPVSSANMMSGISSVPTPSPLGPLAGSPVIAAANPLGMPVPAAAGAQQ

Substance: Casein kinase 2 (CK2), catalytic subunit alpha (CK2α) (from UniProt P68400 1-391) (enzyme)
- binding: binds
